In patent US6541453B2, “Peptide derivatives” (Syngenta Limited, priority 1996, dated 2003):
Some results were stated once for a whole list of compounds, not compound by compound. Part of at least one peptide drawing is inferred or uncertain, most often the ends. At least one structure is not confirmed: it was looked up by name or label, or the drawing left a doubt.

Target: T1, HLA-DR4Dw4 (Homo sapiens, UniProt P01903+P01911, A100K/A169T/F76Y/I96L/K127E/L162R/M171V/N62H/P40V/Q125Y/R42H/S133A/S149N/S66Y/V115G/V209L/W38E)
T1 construct: a cDNA encoding the β chain is cloned into the transfer vector pAcUW1; made in house; host or cells: Sf21 insect cells, double-recombinant baculovirus (Test A); or endogenous protein from the human JAH cell line (variant to Test A)
Assay: Test A: purified HLA-DR peptide in vitro binding assay (or its variant)
Details: Test A or the variant to test A

## COCCN(CCOC)C(=O)CN(CC(=O)N(CCOC)CCOC)C(=O)C[C@H](NC(=O)[C@H](C)NC(=O)[C@H](CCCNC(=N)N)NC(=O)[C@H](C)NC(=O)CCCCc1ccccc1)C(=O)N[C@H](C(=O)N[C@@H]1CCN([C@@H](C)C(=O)N[C@@H](C)C(=O)Nc2ccc(CC(N)=O)cc2)C1=O)[C@@H](C)O [Example 3, Phv-Ala-Arg-Ala-II-Thr-IIIa-Ala-Papa-NH2]
  concentration showing significant binding to HLA-DR4Dw4: ≤ 0.1 µM

## COCCOCCOCCN(CCOCCOCCOC)C(=O)CN(CC(=O)N(CCOCCOCCOC)CCOCCOCCOC)C(=O)C[C@H](NC(=O)[C@H](C)NC(=O)[C@H](C)NC(=O)[C@H](CCCNC(=N)N)NC(=O)CCCCc1ccccc1)C(=O)N[C@H](C(=O)N[C@@H]1CCN([C@@H](C)C(=O)N[C@@H](C)C(=O)Nc2ccc(CC(N)=O)cc2)C1=O)[C@@H](C)O [Example 6, Phv-Arg-Ala-Ala-II-Thr-IIIa-Ala-Papa-NH2]
  concentration showing significant binding to HLA-DR4Dw4: ≤ 0.1 µM
